The list shows a part of the results.
The targets below were run with Cc1cccc(CC(=O)N2CCc3c2ccc(-c2cn(C)c4ncnc(N)c24)c3F)n1 (assay: log2 fold change, soluble protein after heating vs DMSO (PISA); higher = thermal stabilisation; K562 cells, 10 uM, 30 min; active = over 0.2 and 3.5 SD of the protein, either way, in both replicates (recomputed)).
Method in brief: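 Soluble protein was quantified by TMTpro 16plex LC-MS/MS after channel sums were equalised. It was obtained as the supernatant after 21,000xg for 90 min from pooled aliquots of K562 cells (2×10^6 cells/mL, 10 μM compound, 30 min) heated for 3 min across 48°C-58°C and extracted in PBS with 0.5% NP-40 at 4°C. Thermal stability values are relative to control samples and come from duplicates. They are given as log2 fold changes.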

Chains of the proteins cited; added tags and fusions are not shown. Lines headed by an entry give the natural chain unless they say otherwise; changes in a name come on top.
UniProt P62136, whole entry, looked up: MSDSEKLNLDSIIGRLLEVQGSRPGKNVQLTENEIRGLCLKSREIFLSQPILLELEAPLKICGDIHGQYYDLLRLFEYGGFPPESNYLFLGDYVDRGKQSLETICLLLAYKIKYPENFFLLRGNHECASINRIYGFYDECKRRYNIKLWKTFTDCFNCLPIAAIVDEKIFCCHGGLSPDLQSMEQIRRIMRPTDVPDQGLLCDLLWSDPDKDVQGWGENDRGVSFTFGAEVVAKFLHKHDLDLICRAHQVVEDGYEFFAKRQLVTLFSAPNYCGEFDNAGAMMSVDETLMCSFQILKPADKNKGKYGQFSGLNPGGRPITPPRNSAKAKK
UniProt P54619: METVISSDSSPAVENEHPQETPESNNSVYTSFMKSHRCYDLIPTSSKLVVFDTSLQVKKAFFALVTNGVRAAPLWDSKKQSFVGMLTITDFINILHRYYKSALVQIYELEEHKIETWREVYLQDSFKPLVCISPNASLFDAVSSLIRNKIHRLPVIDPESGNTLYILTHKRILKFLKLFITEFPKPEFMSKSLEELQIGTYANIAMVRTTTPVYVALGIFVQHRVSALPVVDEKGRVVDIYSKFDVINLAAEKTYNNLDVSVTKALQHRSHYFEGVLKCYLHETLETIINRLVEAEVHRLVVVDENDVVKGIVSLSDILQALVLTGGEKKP
UniProt P31323, whole entry, looked up: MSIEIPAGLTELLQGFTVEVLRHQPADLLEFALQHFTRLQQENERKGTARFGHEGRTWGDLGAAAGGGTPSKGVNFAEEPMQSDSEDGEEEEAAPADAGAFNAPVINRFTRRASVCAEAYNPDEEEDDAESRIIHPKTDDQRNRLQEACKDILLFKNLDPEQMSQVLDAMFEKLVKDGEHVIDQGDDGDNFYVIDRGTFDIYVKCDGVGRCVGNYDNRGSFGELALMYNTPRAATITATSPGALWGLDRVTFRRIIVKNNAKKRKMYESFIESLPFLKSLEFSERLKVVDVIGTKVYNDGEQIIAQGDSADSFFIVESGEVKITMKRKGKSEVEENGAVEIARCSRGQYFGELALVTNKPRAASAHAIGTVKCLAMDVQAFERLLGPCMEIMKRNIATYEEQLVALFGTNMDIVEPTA
UniProt Q14558: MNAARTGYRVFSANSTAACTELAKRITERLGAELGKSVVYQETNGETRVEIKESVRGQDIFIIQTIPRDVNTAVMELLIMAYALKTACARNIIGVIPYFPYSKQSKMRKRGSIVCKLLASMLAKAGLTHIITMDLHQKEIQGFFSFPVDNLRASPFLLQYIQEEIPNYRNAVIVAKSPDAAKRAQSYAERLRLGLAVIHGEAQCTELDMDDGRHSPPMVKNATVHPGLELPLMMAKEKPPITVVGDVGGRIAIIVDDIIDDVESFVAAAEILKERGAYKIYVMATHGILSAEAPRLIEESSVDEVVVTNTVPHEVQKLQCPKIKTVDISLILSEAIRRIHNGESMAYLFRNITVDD
UniProt O15355: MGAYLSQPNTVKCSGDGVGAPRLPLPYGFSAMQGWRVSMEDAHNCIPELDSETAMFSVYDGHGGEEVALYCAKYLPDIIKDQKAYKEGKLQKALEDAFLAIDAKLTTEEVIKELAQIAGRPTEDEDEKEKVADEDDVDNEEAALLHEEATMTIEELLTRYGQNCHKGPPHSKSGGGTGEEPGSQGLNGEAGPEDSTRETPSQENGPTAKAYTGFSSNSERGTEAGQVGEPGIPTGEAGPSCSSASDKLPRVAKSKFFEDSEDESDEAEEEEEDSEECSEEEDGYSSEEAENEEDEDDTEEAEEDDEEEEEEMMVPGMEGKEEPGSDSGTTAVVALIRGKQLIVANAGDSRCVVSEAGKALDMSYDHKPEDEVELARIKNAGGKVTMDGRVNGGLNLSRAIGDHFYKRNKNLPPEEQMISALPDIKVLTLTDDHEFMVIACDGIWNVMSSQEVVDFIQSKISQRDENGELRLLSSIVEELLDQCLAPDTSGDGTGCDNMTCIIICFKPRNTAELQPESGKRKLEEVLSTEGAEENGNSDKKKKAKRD
UniProt Q9NR22, whole entry, looked up: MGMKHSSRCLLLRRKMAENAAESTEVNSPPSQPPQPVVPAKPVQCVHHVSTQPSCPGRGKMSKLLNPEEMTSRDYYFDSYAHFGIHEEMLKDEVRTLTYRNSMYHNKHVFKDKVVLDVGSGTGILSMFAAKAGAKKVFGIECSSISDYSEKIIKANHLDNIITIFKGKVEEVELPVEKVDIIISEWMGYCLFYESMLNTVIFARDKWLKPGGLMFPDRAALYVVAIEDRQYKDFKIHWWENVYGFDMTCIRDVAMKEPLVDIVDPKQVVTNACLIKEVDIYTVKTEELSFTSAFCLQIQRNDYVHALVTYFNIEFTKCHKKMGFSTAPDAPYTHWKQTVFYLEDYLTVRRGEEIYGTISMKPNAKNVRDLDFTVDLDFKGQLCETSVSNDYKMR
UniProt Q13362, whole entry, looked up: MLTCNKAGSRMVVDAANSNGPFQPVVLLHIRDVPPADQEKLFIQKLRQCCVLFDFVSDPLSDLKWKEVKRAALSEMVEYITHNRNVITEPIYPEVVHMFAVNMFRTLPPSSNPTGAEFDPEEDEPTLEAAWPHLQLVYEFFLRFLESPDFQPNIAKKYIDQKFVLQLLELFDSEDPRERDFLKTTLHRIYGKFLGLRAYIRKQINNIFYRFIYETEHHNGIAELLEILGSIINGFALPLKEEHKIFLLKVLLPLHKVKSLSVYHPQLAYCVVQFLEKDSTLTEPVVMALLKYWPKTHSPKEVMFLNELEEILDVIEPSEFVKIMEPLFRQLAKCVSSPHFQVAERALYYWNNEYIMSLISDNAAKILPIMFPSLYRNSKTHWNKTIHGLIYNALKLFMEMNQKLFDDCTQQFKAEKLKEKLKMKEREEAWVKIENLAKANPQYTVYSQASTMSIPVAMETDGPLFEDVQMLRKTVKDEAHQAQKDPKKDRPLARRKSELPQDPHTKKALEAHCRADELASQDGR
UniProt O43741: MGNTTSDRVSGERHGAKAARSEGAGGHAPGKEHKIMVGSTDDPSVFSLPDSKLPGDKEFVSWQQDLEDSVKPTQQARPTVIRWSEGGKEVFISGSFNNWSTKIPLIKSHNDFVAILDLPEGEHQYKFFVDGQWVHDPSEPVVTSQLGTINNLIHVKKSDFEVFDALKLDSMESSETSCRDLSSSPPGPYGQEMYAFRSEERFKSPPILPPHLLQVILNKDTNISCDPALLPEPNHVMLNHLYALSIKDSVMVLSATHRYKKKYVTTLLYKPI
UniProt Q15172: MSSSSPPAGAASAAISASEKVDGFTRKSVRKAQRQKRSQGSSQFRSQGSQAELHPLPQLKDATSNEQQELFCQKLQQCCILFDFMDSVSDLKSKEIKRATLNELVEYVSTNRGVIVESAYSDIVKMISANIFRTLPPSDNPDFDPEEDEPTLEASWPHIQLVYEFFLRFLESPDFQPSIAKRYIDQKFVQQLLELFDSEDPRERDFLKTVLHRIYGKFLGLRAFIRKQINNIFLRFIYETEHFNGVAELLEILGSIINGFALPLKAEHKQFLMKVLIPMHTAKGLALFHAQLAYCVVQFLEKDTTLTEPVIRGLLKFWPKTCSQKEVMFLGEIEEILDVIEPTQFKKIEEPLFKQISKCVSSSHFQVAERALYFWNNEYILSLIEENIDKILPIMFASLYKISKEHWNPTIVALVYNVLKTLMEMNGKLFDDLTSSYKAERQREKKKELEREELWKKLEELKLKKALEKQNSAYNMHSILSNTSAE
UniProt Q96A00: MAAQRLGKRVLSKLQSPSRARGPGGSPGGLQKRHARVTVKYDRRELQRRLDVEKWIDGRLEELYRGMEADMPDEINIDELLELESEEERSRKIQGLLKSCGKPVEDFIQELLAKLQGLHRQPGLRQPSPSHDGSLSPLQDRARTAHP
UniProt Q9NVM4: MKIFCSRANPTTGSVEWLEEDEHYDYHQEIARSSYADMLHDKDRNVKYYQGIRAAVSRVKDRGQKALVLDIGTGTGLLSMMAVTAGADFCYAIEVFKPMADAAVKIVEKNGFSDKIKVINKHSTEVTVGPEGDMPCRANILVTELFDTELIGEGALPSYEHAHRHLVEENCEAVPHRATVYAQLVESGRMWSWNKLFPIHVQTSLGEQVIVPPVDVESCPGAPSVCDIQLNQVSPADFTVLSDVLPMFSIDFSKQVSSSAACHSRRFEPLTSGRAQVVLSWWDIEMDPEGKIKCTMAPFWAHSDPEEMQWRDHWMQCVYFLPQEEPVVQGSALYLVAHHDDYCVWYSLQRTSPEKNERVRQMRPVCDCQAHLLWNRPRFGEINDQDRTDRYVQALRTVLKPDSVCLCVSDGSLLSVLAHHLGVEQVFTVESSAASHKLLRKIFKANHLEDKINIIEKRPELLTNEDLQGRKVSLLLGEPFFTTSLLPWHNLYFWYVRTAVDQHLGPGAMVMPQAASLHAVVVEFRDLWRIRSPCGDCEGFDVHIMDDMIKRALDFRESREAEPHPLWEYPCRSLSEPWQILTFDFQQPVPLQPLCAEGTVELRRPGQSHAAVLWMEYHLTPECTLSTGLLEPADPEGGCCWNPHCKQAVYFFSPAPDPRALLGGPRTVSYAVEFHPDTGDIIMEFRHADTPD
UniProt Q8TAP8: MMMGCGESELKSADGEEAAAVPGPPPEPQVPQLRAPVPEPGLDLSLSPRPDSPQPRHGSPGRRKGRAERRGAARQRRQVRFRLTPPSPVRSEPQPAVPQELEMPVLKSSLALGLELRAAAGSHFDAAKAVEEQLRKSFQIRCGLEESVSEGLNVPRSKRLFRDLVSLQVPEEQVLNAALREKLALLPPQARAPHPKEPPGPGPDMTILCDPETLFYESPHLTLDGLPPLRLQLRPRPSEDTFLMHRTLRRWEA
UniProt Q13523: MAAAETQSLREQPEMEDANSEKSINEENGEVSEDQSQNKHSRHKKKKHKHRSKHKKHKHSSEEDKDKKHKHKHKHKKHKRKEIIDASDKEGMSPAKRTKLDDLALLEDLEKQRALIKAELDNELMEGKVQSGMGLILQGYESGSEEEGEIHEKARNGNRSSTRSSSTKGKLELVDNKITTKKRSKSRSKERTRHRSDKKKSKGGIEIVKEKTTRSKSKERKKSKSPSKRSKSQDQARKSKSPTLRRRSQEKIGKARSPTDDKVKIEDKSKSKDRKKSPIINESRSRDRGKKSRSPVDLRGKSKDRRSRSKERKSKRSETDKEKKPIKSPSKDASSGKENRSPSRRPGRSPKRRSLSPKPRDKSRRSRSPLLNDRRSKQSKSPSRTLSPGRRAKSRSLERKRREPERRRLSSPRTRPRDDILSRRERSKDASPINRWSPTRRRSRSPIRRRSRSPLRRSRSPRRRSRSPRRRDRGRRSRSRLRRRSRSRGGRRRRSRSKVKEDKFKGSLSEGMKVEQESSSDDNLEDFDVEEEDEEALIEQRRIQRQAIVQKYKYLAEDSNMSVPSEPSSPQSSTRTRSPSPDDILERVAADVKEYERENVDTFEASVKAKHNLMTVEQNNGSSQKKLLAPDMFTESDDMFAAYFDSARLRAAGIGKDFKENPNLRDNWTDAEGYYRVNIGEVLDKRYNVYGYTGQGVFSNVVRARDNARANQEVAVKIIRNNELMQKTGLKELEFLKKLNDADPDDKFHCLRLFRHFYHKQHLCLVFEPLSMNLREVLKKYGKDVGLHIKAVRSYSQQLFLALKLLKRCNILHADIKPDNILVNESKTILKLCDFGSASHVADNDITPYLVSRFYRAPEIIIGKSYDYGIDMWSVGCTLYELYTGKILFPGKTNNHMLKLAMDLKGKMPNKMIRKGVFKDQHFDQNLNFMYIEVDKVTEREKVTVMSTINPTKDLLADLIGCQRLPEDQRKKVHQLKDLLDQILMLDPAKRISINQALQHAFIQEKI

log2 fold change, inactive:
PPP1CA (UniProt P62136) -0.001
PRKAG1 isoform 3 (UniProt P54619) 0.001
PPP6R3 isoform 5 (UniProt Q5H9R7) 0.011
PRKAR2B (UniProt P31323) 0.133
PRPSAP1 isoform 2 (UniProt Q14558) 0.022
PRKCQ (UniProt Q04759) 0.024
PPM1G (UniProt O15355) 0.048
PRKCB isoform 2 (UniProt P05771) 0.025
PRMT8 (UniProt Q9NR22) 0.032
PPP2R5C isoform 4 (UniProt Q13362) -0.019
PRKAB2 (UniProt O43741) -0.01
PRPF18 (UniProt Q99633) -0.016
PRKCA (UniProt P17252) -0.066
PRKDC (UniProt P78527) 0.035
PPP2R5A (UniProt Q15172) 0.027
PPP1R14A (UniProt Q96A00) 0.026
PRKACA (UniProt P17612) 0.107
PRKAA1 isoform 2 (UniProt Q13131) 0.035
PRMT7 (UniProt Q9NVM4) -0.086
PPP1R35 (UniProt Q8TAP8) 0.058
PRPF4B (UniProt Q13523) -0.096
PRKAR2A (UniProt P13861) 0.007

As a working copy, part of the list above:
log2 fold change, inactive:
PRKACA (UniProt P17612) 0.107
PRKAA1 isoform 2 (UniProt Q13131) 0.035
PRMT7 (UniProt Q9NVM4) -0.086
PPP1R35 (UniProt Q8TAP8) 0.058
PRPF4B (UniProt Q13523) -0.096

— the supplement of paper PMC10849652
